Test results published in publication PMC4255088.
Results are given in words; binding and its absence hold for the method and conditions named. In cells and extracts the contact can be indirect. Some binding calls cover weakened binding; strength is not graded here.

Chains of the proteins cited; added tags and fusions are not shown.
UniProt Q61616: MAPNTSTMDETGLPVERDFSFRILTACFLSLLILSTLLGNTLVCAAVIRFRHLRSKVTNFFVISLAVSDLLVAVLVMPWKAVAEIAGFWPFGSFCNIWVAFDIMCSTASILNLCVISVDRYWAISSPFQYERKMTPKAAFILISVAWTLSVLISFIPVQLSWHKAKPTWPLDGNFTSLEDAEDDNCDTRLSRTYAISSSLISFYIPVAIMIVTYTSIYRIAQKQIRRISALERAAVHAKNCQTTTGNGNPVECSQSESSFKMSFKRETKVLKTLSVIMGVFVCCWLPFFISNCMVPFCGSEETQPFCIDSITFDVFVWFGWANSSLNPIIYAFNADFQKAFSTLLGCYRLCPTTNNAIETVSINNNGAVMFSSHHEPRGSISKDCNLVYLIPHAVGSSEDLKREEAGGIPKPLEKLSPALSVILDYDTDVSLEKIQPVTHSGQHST

Biological target: dopamine D1 receptor (mouse (endogenous in brain slices of mice)) (UniProt Q61616)
Assay: proximity ligation; blocking of the endogenous D1R/GluN1 PLA signal in cultured MSN by the cell-permeable peptide (5 uM, 1 h before and during co-stimulation); only the binder purified

- binding: binds
Binder: GRKKRRQRRRPPDRKSGRAEPDPKKKATFRAITSTLASSFKRRRSSKDT [TAT-GluN1C1]
